Assay: Tilt angle in VA-e/o test cells with LC host mixture N1 before and after UV polymerisation (rotational crystal experiment)
Protocol: The tilt angle is determined by a rotational crystal experiment (Autronic-Melchers TBA-105). A small value (i.e. a large deviation from a 90° angle) corresponds to a large tilt here.
0.3% of a polymerisable monomeric compound from Examples 1 to 10 is added to LC mixture N1, and the resultant mixtures are introduced into VA-e/o test cells (rubbed at 90°, alignment layer VA-polyimide, layer thickness d≈4 μm). Each cell is irradiated for 20 minutes with UV light having an intensity of 28 mW/cm^2 with application of a voltage of 10 V (alternating current), causing polymerisation of the monomeric compound. In a second series of experiments, 0.006% of the photoinitiator Irgacure 651 is additionally added to the LC/monomer mixture, and the exposure time is shortened to 2 minutes. Before and after the UV irradiation, the tilt angle is determined by a rotational crystal experiment (Autronic-Melchers TBA-105).
For comparative purposes, the experiments described above are carried out with the structurally analogous polymerisable compounds (A) and (B) known from the prior art (for example EP 1 498 468 A1), in which the polymerisable groups are linked in the para-position to the mesogenic group.

[1] = 0.3% monomer in LC mixture N1, no initiator, 20 minutes UV 28 mW/cm^2, 10 V alternating current
[2] = 0.3% monomer in LC mixture N1, no initiator, before UV irradiation
[3] = 0.3% monomer in LC mixture N1, with 0.006% photoinitiator Irgacure 651, 2 minutes UV 28 mW/cm^2, 10 V alternating current
[4] = 0.3% monomer in LC mixture N1, with 0.006% photoinitiator Irgacure 651, before UV irradiation

Compound	Tilt after UV [1]	Tilt before UV [2]	Tilt after UV [3]	Tilt before UV [4]
C=CC(=O)Oc1cccc(-c2cccc(OC(=O)C=C)c2)c1 [(2), 3′-Acryloyloxybiphenyl-3-yl acrylate]	87.2°	89.9°	87.0°	89.9°
C=CC(=O)Oc1ccc(-c2cc(OC(=O)C=C)cc(OC(=O)C=C)c2)cc1 [(6), 3′,5′-Bis(acryloyloxy)biphenyl-4-yl acrylate]	85.2°	89.9°	80.0°	89.9°
C=C(C)C(=O)OCCCc1cccc(-c2cccc(OC(=O)C(=C)C)c2)c1 [(4), 3′-[3-(2-Methylacryloyloxy)propyl]biphenyl-3-yl 2-methylacrylate]	83.5°	89.8°	84.7°	89.7°
C=C(C)C(=O)OCCCCc1cc(-c2ccc(OC(=O)C(=C)C)cc2)ccc1OC(=O)C(=C)C [(9), 4′-(2-Methylacryloyloxy)-3-[4-(2-methylacryloyloxy)butyl]biphenyl-4-yl 2-methylacrylate]	84.5°	89.9°	86.1°	89.8°
C=CC(=O)Oc1ccc(-c2cc(CCCCOC(=O)C(=C)C)cc(CCCCOC(=O)C(=C)C)c2)cc1 [(10), 4-{4′-Acryloyloxy-5-[4-(2-methylacryloyloxy)butyl]biphenyl-3-yl}butyl 2-methylacrylate]	83.7°	89.9°	86.0°	89.8°
C=C(C)C(=O)OCCCOc1cccc(-c2cccc(OC(=O)C(=C)C)c2)c1 [(3), 3′-[3-(2-Methylacryloyloxy)propoxy]biphenyl-3-yl 2-methylacrylate]	87.4°	89.8°	87.5°	89.9°
C=C(C)C(=O)Oc1ccc(-c2ccc(OC(=O)C(=C)C)cc2)cc1 [(A), reference compound]	81.8°	89.7°	84.8°	89.8°
C=CC(=O)Oc1ccc(-c2ccc(OC(=O)C=C)cc2)cc1 [(B), reference compound]	86.2°	89.6°	87.0°	89.7°
C=C(C)C(=O)Oc1ccc(-c2cc(OC(=O)C(=C)C)cc(OC(=O)C(=C)C)c2)cc1 [(5), 3′,5′-Bis(2-methylacryloyloxy)biphenyl-4-yl 2-methylacrylate]	86.3°	89.9°	84.2°	89.9°
C=C(C)C(=O)Oc1cccc(-c2cccc(OC(=O)C(=C)C)c2)c1 [(1), 3′-(2-Methylacryloyloxy)biphenyl-3-yl 2-methylacrylate]	87.9°	89.9°	87.4°	89.9°
C=C(C)C(=O)OCCc1ccc(-c2cc(OC(=O)C(=C)C)cc(OC(=O)C(=C)C)c2)cc1 [(7), 5-(2-Methylacryloyloxy)-4′-[2-(2-methylacryloyloxy)ethyl]biphenyl-3-yl 2-methylacrylate]	86.8°	89.9°	86.8°	89.8°
C=C(C)C(=O)OCCCCc1cc(-c2cccc(OC(=O)C(=C)C)c2)ccc1OC(=O)C(=C)C [(8), 3′-(2-Methylacryloyloxy)-3-[4-(2-methylacryloyloxy)butyl]biphenyl-4-yl 2-methylacrylate]	83.4°	89.9°	86.8°	89.7°
